Reference: US20250092109A1
Changes are numbered by the printed parent chain. No constants are given. Whether binding was seen depends on the method and setting. Some entries that bind do so weakly or less than the wild type.

Amino acid sequences for entries named in this document (tags omitted). Residues count along the entry.
UniProt P60568, residues 21-153: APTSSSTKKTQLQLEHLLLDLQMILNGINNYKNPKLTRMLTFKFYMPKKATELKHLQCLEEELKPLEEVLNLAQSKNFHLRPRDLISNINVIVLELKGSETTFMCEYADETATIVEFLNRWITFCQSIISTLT

B1: VHH21 (VHH)
VHH: EVQLVESGGGLVQPGGSLRLSCAASGSIFSSNVMGWYRQAPGKQRELVAAISSGGSTNYADSVKGRFTISRDNAKNTVYLQMNSLKPEDTAVYYCAYASSFYEDETDYWGQGTQVTVSS
B2: VHH31 (VHH)
VHH: B1 VHH with Q44G, R45L
B3: VHH40 (VHH)
VHH: B1 VHH with S31I, A96M, F101W, W109R, Q114L
B4: VHH5 (VHH)
VHH: B1 VHH with S31I, F101W
B5: VHH1 (VHH)
VHH: B1 VHH with S31I, A96M, F101W
B6: VHH4 (VHH)
VHH: B1 VHH with S31I, A96M, F101Y
B7: VHH2 (VHH)
VHH: B1 VHH with S31I, A60P, A96M, F101W
B8: VHH3 (VHH)
VHH: B1 VHH with S31I, A96M
B9: VHH34 (VHH)
VHH: B1 VHH with S27L, I28T, S30G, N32Y, V33A, Q44G, R45L, L47W, A49S
B10: VHH39 (VHH)
VHH: B1 VHH with S27L, I28T, S30G, N32Y, V33A, Q44G, R45L, L47W, A49S, F101Y
B11: VHH30 (VHH)
VHH: B1 VHH with S31I, Q44G, N58Y, A60P
B12: VHH29 (VHH)
VHH: B1 VHH with S27L, I28T, S30G, N32Y, V33A, F101Y
B13: VHH11 (VHH)
VHH: B1 VHH with S31I, Q44G, R45L, L47W, A49S
B14: VHH41 (VHH)
VHH: B1 VHH with S31I, W109R, Q114L
B15: VHH20 (VHH)
VHH: B1 VHH with S31I, N58Y, A60P
B16: VHH32 (VHH)
VHH: B1 VHH with S31I, V33A, Q44G, R45L
B17: VHH14 (VHH)
VHH: B1 VHH with S31I, Q44G, R45L, L47W, A49S, F101Y
B18: VHH22 (VHH)
VHH: B1 VHH with S31I, V33A
B19: VHH27 (VHH)
VHH: B1 VHH with S31I, V33A, F101Y
B20: VHH19 (VHH)
VHH: B1 VHH with S27L, I28T, S30G, N32Y, V33A, F101W
B21: VHH25 (VHH)
VHH: B1 VHH with S31I, N58Y, A60P, F101Y
B22: VHH33 (VHH)
VHH: B1 VHH with S31I, N32Y, Q44G
B23: VHH23 (VHH)
VHH: B1 VHH with S31I, N32Y
B24: VHH35 (VHH)
VHH: B1 VHH with S31I, Q44G, N58Y, A60P, F101Y
B25: VHH37 (VHH)
VHH: B1 VHH with S31I, V33A, Q44G, R45L, F101Y
B26: VHH42 (VHH)
VHH: B1 VHH with S31I, F101Y, W109R, Q114L
B27: VHH28 (VHH)
VHH: B1 VHH with S31I, N32Y, F101Y
B28: VHH38 (VHH)
VHH: B1 VHH with S31I, N32Y, Q44G, F101Y
B29: VHH17 (VHH)
VHH: B1 VHH with S31I, V33A, F101W
B30: VHH8 (VHH)
VHH: B1 VHH with S31I, Q44G, R45L, L47W, A49S, A96M, F101W
B31: VHH15 (VHH)
VHH: B1 VHH with S31I, N58Y, F101W
B32: VHH18 (VHH)
VHH: B1 VHH with S31I, N32Y, F101W
B33: VHH13 (VHH)
VHH: B1 VHH with S31I, Q44G, R45L, F101Y
B34: VHH10 (VHH)
VHH: B1 VHH with S31I, Q44G, R45L

Target: IL-2 (UniProt P60568)
Test: SPR, kinetic Group 2

binding, binds:
B1
B2
B3
B4

Target: IL-2 (UniProt P60568)
Test: SPR, kinetic Group 1

binding, binds:
B5
B6
B7
B8

Target: IL-2 (UniProt P60568)
Test: SPR, kinetic Group 4

binding, binds:
B9
B10
B11
B12
B13
B14
B15
B16
B17
B18
B19
B20
B21
B22
B23
B24
B25
B26
B27

Target: IL-2 (UniProt P60568)
Test: SPR, kinetic Group 3

binding, binds:
B28
B29
B30
B31
B32
B33
B34
